Results are given in words; binding and its absence hold for the method and conditions named. Binding seen in cells or lysates may run through a third protein. Some results given as binding are weak or reduced against the parent protein; the word gives no strength.
Target: T1, TFDP1 (transcription factor DP-1) (mouse (endogenous in HSPCs)) (UniProt Q08639)
T1 sequence: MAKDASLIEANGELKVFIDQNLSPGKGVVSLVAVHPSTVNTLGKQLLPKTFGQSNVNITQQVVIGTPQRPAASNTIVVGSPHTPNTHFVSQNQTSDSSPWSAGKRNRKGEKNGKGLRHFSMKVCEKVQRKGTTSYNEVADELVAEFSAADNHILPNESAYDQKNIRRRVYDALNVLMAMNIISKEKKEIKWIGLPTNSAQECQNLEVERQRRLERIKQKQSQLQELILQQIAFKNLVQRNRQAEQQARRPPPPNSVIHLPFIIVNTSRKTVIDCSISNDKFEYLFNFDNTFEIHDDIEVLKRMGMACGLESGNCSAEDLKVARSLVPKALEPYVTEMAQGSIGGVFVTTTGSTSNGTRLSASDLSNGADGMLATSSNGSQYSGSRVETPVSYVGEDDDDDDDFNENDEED
Assay: co-IP; endogenous proteins; 1 x 10^7 expanded mouse Cas9-HSPCs lysed in RIPA buffer with protease inhibitors; 500 ug total protein immunoprecipitated overnight with anti-TFDP1, anti-E2F4 or anti-E2F1; captured on Protein A + G magnetic beads

Chains of the proteins cited; added tags and fusions are not shown.
UniProt Q61501: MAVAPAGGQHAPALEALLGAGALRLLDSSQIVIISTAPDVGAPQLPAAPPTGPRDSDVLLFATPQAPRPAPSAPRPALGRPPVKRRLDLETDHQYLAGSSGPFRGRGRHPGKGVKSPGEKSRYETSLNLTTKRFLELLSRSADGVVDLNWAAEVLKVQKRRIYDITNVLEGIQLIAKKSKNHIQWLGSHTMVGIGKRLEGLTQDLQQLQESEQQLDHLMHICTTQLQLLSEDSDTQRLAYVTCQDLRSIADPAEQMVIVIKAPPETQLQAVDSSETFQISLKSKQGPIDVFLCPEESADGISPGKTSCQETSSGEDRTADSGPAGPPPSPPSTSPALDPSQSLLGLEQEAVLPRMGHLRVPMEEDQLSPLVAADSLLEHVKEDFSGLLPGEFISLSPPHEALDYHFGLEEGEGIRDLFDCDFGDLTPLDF
UniProt Q8R0K9: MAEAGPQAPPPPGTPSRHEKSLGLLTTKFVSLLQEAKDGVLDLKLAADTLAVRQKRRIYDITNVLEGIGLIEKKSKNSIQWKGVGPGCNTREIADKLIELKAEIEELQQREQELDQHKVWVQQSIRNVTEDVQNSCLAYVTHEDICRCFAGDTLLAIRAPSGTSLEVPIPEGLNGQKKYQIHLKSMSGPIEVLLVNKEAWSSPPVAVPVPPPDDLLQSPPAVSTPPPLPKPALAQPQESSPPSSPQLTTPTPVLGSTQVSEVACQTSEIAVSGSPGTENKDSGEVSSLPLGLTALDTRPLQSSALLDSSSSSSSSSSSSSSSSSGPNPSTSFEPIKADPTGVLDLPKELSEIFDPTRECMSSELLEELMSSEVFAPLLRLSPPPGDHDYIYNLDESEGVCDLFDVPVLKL

Q: With E2F1 (from UniProt Q61501 1-430) as the substance, how does the binding read?
A: The binding was “binds”.

Q: Which binding does the source give for E2F4 (from UniProt Q8R0K9 1-410) here?
A: The binding was “binds”.

— paper PMC11347378
